No constants are given. Whether binding was seen depends on the method and setting. Some binding calls cover weakened binding; strength is not graded here.
Tests used:
BMP10 = target: T1, BMP10 (UniProt O95393); assay: similar binding assay (Biacore)
T1 sequence (looked up): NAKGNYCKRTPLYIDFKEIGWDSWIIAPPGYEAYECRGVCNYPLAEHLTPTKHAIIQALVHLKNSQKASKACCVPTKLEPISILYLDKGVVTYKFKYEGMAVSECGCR

The chains behind the UniProt entries cited, without tags or fusion partners. Where a name states a change or a piece, a line headed by the entry shows the natural chain unless it says otherwise. Residues count along the entry.
UniProt P22004, residues 382-513: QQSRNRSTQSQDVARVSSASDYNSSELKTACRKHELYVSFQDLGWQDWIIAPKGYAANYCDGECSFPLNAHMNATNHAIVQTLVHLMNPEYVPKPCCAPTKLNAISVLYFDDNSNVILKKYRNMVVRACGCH
UniProt P27037: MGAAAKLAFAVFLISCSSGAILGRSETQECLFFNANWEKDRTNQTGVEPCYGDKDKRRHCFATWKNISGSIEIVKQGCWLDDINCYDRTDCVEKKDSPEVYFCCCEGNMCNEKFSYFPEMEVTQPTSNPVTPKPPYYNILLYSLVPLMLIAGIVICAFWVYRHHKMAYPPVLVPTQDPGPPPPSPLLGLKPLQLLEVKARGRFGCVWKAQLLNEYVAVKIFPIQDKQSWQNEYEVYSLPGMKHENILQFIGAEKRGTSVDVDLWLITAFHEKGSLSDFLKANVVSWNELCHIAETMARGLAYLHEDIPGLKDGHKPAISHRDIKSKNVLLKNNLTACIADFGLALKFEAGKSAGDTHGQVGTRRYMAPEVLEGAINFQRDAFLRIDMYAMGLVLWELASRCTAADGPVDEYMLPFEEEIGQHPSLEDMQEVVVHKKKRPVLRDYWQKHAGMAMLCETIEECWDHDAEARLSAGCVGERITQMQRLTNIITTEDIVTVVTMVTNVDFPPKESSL

BMP6 = BMP6 (UniProt P22004); assay: similar binding assay (Biacore)
GDF8 = target: T2, GDF8 (UniProt O14793); assay: similar binding assay (Biacore)
T2 sequence (looked up): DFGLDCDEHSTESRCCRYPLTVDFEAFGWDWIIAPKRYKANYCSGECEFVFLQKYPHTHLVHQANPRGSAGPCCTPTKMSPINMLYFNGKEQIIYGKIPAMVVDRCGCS

activin B = target: T3, activin B (UniProt P09529); assay: similar binding assay (Biacore)
T3 sequence (looked up): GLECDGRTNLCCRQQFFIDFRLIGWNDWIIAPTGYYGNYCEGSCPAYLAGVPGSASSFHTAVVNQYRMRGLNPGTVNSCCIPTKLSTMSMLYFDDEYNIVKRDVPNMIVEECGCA

GDF11 = target: T4, GDF11 (UniProt O95390); assay: SPR (Biacore), ligand amine-coupled on CM5 chip, ActRIIA-mFc in solution
T4 sequence (looked up): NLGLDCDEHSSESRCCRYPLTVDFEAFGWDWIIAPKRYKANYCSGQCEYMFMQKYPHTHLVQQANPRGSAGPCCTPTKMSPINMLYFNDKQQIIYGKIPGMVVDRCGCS

binding (BMP10): binds
binding (BMP6): binds
binding (GDF8): binds
binding (activin B): binds
binding (GDF11): binds
Substance: ActRIIA-mFc (from UniProt P27037 21-135) (Fc fusion)

Source: patent publication US20240327494A1
